Laboratory results: PubChem BioAssay AID2685 (National Center for Advancing Translational Sciences (NCATS), 2010)
This is one part of the list. The main result of the screen is listed elsewhere. These columns were measured beside it and carry no call. The list favours compounds with an active or inconclusive main result. Words in brackets tell the shape of the fitted curve; partial curves, single points and poor fits give uncertain potencies.

Test: qHTS Assay for Lipid Storage Modulators in Drosophila S3 Cells;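 as to cell number change: cells counted by Cell Tracker Red CMTPX staining in the red channel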
Details: BODIPY lipid droplet fluorescence, 18-24 h; for cell number change: measured here: cell count max response, cells fed with added oleic acid
Procedure, shortened: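 Drosophila S3 cells loaded with oleic acid (400 uM, as added) and compounds at several concentrations; lipid droplets imaged by 488-nm laser-scanning cytometry, 500–530 nm intensity and object ratio to cell channel. Percent activity normalized to 20 uM Triacsin C.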

[1] = measured here: cell number channel AC50, cells fed with added oleic acid
[2] = measured here: lipid fluorescence (Fed channel) AC50, cells fed with added oleic acid

Row | SMILES | cell number change [%] | AC50 [1] | AC50 [2]
1 | C[C@H]1CCC[C@]2(CC(=O)c3cc(F)ccc3O2)C1 | -45.8 | 29.1 µM [falling, partial curve, poor fit] | 6.51 µM [falling, single point]
2 | O=C(N1CCOCC1)n1nnc2ccccc21 | -14 | – | 3.26 µM [falling, single point]
3 | Cc1ccc2nc(NC(=O)c3ccco3)sc2c1 | – | 1.3 µM [rising, partial curve] | 32.6 µM [rising, single point]
4 | CC(C)c1ccc(/C=C2\SC(=O)N(CC(=O)NC3C=CS(=O)(=O)C3)C2=O)cc1 (stereo not drawn) | – | – | 4.11 µM [falling, partial curve]
5 | CCC(C)NC(=O)CSc1ncccc1C(=O)O (stereo not drawn) | -14.6 | – | –
6 | CCn1cc(C(=O)NCc2ccc(OC)cc2OC)c(=O)c2ccc(C)nc21 | 17.1 | – | 0.82 µM [rising, single point]
7 | CCCCCOc1ccc(/C=C/C(=O)NCCc2nc3ccccc3[nH]2)cc1OC | – | – | 1.84 µM [falling, partial curve]
8 | S=C(NCCc1ccccc1)N1CCN(C2CCCCC2)CC1 | 22.7 | 0.82 µM [falling, single point] | –
9 | CCN(CC)S(=O)(=O)c1ccc(N2CCCC2)c(NC(=O)Cc2cc(OC)c(OC)c(OC)c2)c1 | 8.97 | – | 0.0651 µM [rising, full curve, poor fit]
10 | C/C(=N\NC(=O)C1CC1(C)c1ccccc1)c1ccco1 (stereo not drawn) | 13 | – | 0.092 µM [rising, full curve, poor fit]
11 | O=C(CCC(=O)c1ccc(F)cc1)NCc1ccccc1C(F)(F)F | -22.4 | – | 16.4 µM [rising, single point]
12 | CC(=O)c1c(C(C)=O)c(C)n(NC(=O)c2ccccc2O)c1C | -5.89 | – | 6.51 µM [falling, single point]
13 | O=C(O)Cc1nc(-c2cccnc2)sc1-c1ccc(Br)cc1 | 24.4 | – | 1.3 µM [rising, full curve, poor fit]
14 | CCOC(=O)C(O)(CC(=O)c1ccc(Cl)cc1)C(=O)OCC | -38.6 | 29.1 µM [falling, single point] | –
15 | C/C(=N/NC(=O)c1ccccc1)c1ccc(NC(=O)C(F)(F)F)cc1 | 6.05 | – | –
16 | O=C(NC1CCSc2ccccc21)c1cccc(OC(F)F)c1 (stereo not drawn) | 5.83 | – | 23.1 µM [rising, single point]
17 | COc1ccccc1-c1noc(Cn2cc(S(=O)(=O)N3CCCC3)ccc2=O)n1 | 4.42 | – | –
18 | Cc1nc2ccccn2c(=O)c1NC(=O)c1cccc2ccccc12 | – | – | 6.51 µM [rising, single point]
19 | Cc1ccc(CNC(=O)C2CCC(=O)N(CCc3cccc(F)c3)C2)s1 (stereo not drawn) | -4.97 | – | 6.51 µM [falling, single point]
20 | Cc1ccc(NC(=S)NNC(=O)c2nn(C)cc2Cl)cc1 | -18.9 | – | 0.58 µM [falling, full curve, poor fit]
21 | Cc1ccccc1CN1CCC(Oc2ccc(C(=O)NCc3ccccn3)cc2)CC1 | -13.1 | – | –

Row | SMILES | cell number change [%] | AC50 [1] | AC50 [2]
22 | c1ccc(N2CCOCC2)c(Nc2nc3ccccc3n3cnnc23)c1 | – | 0.58 µM [rising, single point] | –
23 | CCCCn1c(N)c(N(CC(C)C)C(=O)CN2C(=O)NC3(CC(C)CC(C)(C)C3)C2=O)c(=O)[nH]c1=O (stereo not drawn) | 5.97 | – | –
24 | COCCNS(=O)(=O)c1ccc(Cl)c(C(=O)NC2CCN(Cc3ccccc3)CC2)c1 | – | 0.231 µM [rising, full curve] | –
25 | O=C(CCNS(=O)(=O)c1ccccc1)N1CCN(c2ccccc2F)CC1 | 8.78 | 0.164 µM [rising, full curve] | 0.0731 µM [rising, full curve, poor fit]
26 | CC(=O)c1ccc(NC(=O)CNCC(c2ccccc2)N(C)C)cc1 (stereo not drawn) | -5.73 | – | 0.291 µM [falling, full curve, poor fit]
27 | COc1ccc(OCCSc2nc(C)nc3ccccc23)cc1 | 6.95 | – | –
28 | CCOC(=O)N1CCN(Cc2nc(N)nc(Nc3ccc(Cl)cc3)n2)CC1 | 21.1 | – | 16.4 µM [rising, single point]
29 | Cc1noc(C)c1S(=O)(=O)N1CCC(C(=O)N2CCN(C(=O)c3ccco3)CC2)CC1 | 4.73 | – | –
30 | Cc1ccc(-c2cc(C(=O)N/N=C/c3cccnc3)n[nH]2)o1 | -2.18 | – | 2.06 µM [rising, partial curve]
31 | O=C(O)c1cccc(NS(=O)(=O)c2ccc(NC(=O)c3ccco3)cc2)c1 | 78 | 0.00411 µM [rising, full curve, poor fit] | –
32 | N#Cc1ccc(NC(=O)COC(=O)c2ccc(F)c(S(=O)(=O)N3CCOCC3)c2)cc1 | 7.22 | – | 0.517 µM [rising, single point]
33 | O=C(O)C1CCCCC1C(=O)NCc1ccc(F)cc1 (stereo not drawn) | -26.3 | 4.11 µM [falling, full curve, poor fit] | –
34 | COc1ccc(OCC(=O)Nc2cc(S(=O)(=O)N3CCCC3)ccc2OCC(F)(F)F)cc1 | -5.62 | – | –
35 | Cc1cc(NC(=O)C2CCCN(S(=O)(=O)c3c(C)noc3C)C2)n[nH]1 (stereo not drawn) | -1.1 | – | –
36 | CC1CCN(C(=O)C(C)c2ccc([N+](=O)[O-])cc2)CC1 (stereo not drawn) | -7.46 | – | –
37 | COc1ccc(/C=C2/SC(c3ccc(C)cc3)=NC2=O)cc1OC | – | – | 29.1 µM [rising, single point]
38 | COc1ccc(OCc2nnc(SCC(=O)Nc3nnc(C4CC4)s3)n2C)cc1 | 2.1 | – | 29.1 µM [falling, single point]
39 | O=C(Oc1ccc(F)cc1C(=O)/C=C/c1cccs1)c1cccc([N+](=O)[O-])c1 | -17.5 | – | –
40 | COc1ccc(-c2csc(/N=C/N(C)C)n2)cc1OC | – | 0.116 µM [rising, single point] | 0.103 µM [rising, partial curve, poor fit]
41 | Cc1ccc(NC(=O)NCCN2CCCCC2)cc1C | 9.33 | – | 0.731 µM [falling, single point]
42 | O=C(Nc1ccccc1)OC1CCC2CC1CCC2OC(=O)Nc1ccccc1 (stereo not drawn) | 10.9 | 1.46 µM [rising, full curve, poor fit] | 1.64 µM [rising, full curve]

Reformatted: 4 of the compounds above
Row	SMILES	cell number change [%]	AC50 [1]	AC50 [2]
22	c1ccc(N2CCOCC2)c(Nc2nc3ccccc3n3cnnc23)c1	–	0.58 µM [rising, single point]	–
25	O=C(CCNS(=O)(=O)c1ccccc1)N1CCN(c2ccccc2F)CC1	8.78	0.164 µM [rising, full curve]	0.0731 µM [rising, full curve, poor fit]
26	CC(=O)c1ccc(NC(=O)CNCC(c2ccccc2)N(C)C)cc1 (stereo not drawn)	-5.73	–	0.291 µM [falling, full curve, poor fit]
29	Cc1noc(C)c1S(=O)(=O)N1CCC(C(=O)N2CCN(C(=O)c3ccco3)CC2)CC1	4.73	–	–

Further results:

Row | SMILES | cell number change [%] | AC50 [1] | AC50 [2]
43 | O=C(CCNC(=O)c1ccc([N+](=O)[O-])cc1)Nc1ccc(N2CCOCC2)cc1N1CCOCC1 | -48.3 | 29.1 µM [falling, single point] | –
44 | CO/N=C/C(C#N)=C/c1ccc(OC)c(OC)c1 | 29 | – | 2.59 µM [rising, full curve]
45 | CSCCC(NC(=O)c1ccccc1)C(=O)NNC(=O)c1csc(N2CCOCC2)n1 (stereo not drawn) | -12.7 | – | 29.1 µM [rising, single point]
46 | C=CCNC1=C(Cl)C(=O)c2ccccc2C1=O | -10.7 | 6.51 µM [falling, single point] | 3.26 µM [falling, single point]
47 | CCc1ccc(-c2nc(CS(=O)CC(=O)O)c(C)o2)cc1 (stereo not drawn) | – | – | 23.1 µM [falling, single point]
48 | O=S(=O)(/N=C(/Nc1ccccc1)c1ccccc1O)c1ccccc1 | 30.5 | 16.4 µM [rising, single point] | –
49 | CC[C@@H](C)[C@@H](C(=O)N1CCN(C(=O)OC(C)(C)C)CC1)n1cc(CCCCNC(=O)OC(C)(C)C)nn1 | -37.5 | 8.2 µM [falling, partial curve, poor fit] | 20.6 µM [falling, partial curve]
50 | CSc1nc(-c2ccco2)nn1C(=O)c1ccccc1 | -5.03 | – | –
51 | Cc1ccc(C23CC4CC(CC(C(=O)NC(C(=O)O)C(C)C)(C4)C2)C3)cc1 (stereo not drawn) | -10.1 | – | 2.31 µM [falling, single point]
52 | N#C/C(=N\Nc1c(Cl)cccc1Cl)C(=O)NN | 7.2 | – | –
53 | CC1(C)C(C=C(Cl)Cl)C1C(=O)Nc1ccc([N+](=O)[O-])cc1 (stereo not drawn) | -33.3 | 32.6 µM [falling, single point] | 29.1 µM [falling, partial curve, poor fit]
54 | COc1cccc(NC(=O)CN(C)C(=O)c2ccc3c(c2)S(=O)(=O)N=C2CCCCCN23)c1 | 16.6 | – | 0.651 µM [falling, full curve, poor fit]
55 | O=C(COc1cc(Cl)c(Cl)cc1Cl)NC(=O)NC1CCCC1 | -40.3 | 29.1 µM [falling, single point] | –
56 | CCOc1ccc(N(CC(=O)NC2CCC(C)CC2)S(=O)(=O)c2c(C)noc2C)cc1 (stereo not drawn) | -22.4 | – | 0.58 µM [falling, single point]
57 | Cc1c(C(=O)OCc2ccccc2)[nH]c2c1C(=O)CC(c1ccco1)C2 (stereo not drawn) | -36.5 | – | 0.461 µM [rising, full curve, poor fit]
58 | Cc1ccc(NC(=O)c2cc(S(=O)(=O)N3CCOCC3)cs2)cc1 | 18.3 | – | –
59 | Cc1ccc(C(=O)N/C(=C\c2ccco2)C(=O)NCCN2CCCCC2)cc1C | -12.8 | – | –
60 | CCOCCOC(=O)Cn1cnc2scc(-c3ccc(C)cc3)c2c1=O | -16.2 | – | 6.51 µM [rising, single point]
61 | Cc1cc(C)nc(SCc2ccc(C(=O)N/N=C/C3CCCCC3)cc2)n1 | 32.4 | 1.46 µM [rising, full curve] | 2.31 µM [rising, full curve]
62 | CC(C)n1cc(/C=N/NC(=O)COc2cccc3cccnc23)c2ccccc21 | -58.7 | 18.4 µM [falling, single point] | 29.1 µM [falling, single point]
63 | NC(=O)CC(NC(=O)Cc1ccc(Cl)cc1)c1ccc(NC2CC3CCC2C3)c([N+](=O)[O-])c1 (stereo not drawn) | -41.9 | 25.9 µM [falling, single point] | 1.64 µM [falling, partial curve, poor fit]
